{"source": "PubChem BioAssay AID493246 (Drosophila RNAi Screening Center, 2011)", "aim": "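Genome-wide search for dsRNAs that reduce cell number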 (primary screen)", "cells": "Drosophila Kc and S2R+ cells", "knock-down reagent": "long dsRNA against Drosophila genes", "read-out": "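Raw, unnormalised count of remaining cells in each well; per-plate z-scores of cell number underlie the calls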", "direction": "Kc cell number and S2R+ cell number: higher = more cells remaining", "active means": "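Counted as a hit if cell number falls by a z-score of at least 3 within its plate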", "note": "In all, the deposit lists about 21,000 reagents; this is a random part of those that have a named target and a result. Over the whole deposit, 429 (2%) got an active call. 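Values are raw and not normalised between plates; calls rest on per-plate z-scores that were not deposited.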 Not stated in the record: the amount of reagent, the time to read-out."}
{"gene": "Sec6 (Secretory 6)", "dsRNA": "DRSC06932", "Kc cell number, rep 1": 1.46e6, "Kc cell number, rep 2": 1.66e6, "S2R+ cell number, rep 1": 1.17e6, "S2R+ cell number, rep 2": 1.25e6, "outcome": "inactive"}
{"gene": "Tom7 (Translocase of outer membrane 7)", "dsRNA": "DRSC05135", "Kc cell number, rep 1": 1.44e6, "Kc cell number, rep 2": 1.51e6, "S2R+ cell number, rep 1": 9.45e5, "S2R+ cell number, rep 2": 1.10e6, "outcome": "inactive"}
{"gene": "Tom7 (Translocase of outer membrane 7)", "dsRNA": "DRSC07113", "Kc cell number, rep 1": 1.44e6, "Kc cell number, rep 2": 1.48e6, "S2R+ cell number, rep 1": 1.27e6, "S2R+ cell number, rep 2": 1.36e6, "outcome": "inactive"}
{"gene": "CG32459", "dsRNA": "DRSC11852", "Kc cell number, rep 1": 1.43e6, "Kc cell number, rep 2": 1.53e6, "S2R+ cell number, rep 1": 1.28e6, "S2R+ cell number, rep 2": 1.34e6, "outcome": "inactive"}
{"gene": "CG11882", "dsRNA": "DRSC14425", "Kc cell number, rep 1": 1.43e6, "Kc cell number, rep 2": 1.45e6, "S2R+ cell number, rep 1": 9.87e5, "S2R+ cell number, rep 2": 1.15e6, "outcome": "inactive"}
{"gene": "CG10834", "dsRNA": "DRSC03693", "Kc cell number, rep 1": 1.67e6, "Kc cell number, rep 2": 1.69e6, "S2R+ cell number, rep 1": 1.21e6, "S2R+ cell number, rep 2": 2.97e5, "outcome": "inactive"}
{"gene": "AGO2 (Argonaute 2)", "dsRNA": "DRSC09999", "Kc cell number, rep 1": 1.20e6, "Kc cell number, rep 2": 1.22e6, "S2R+ cell number, rep 1": 8.68e5, "S2R+ cell number, rep 2": 9.95e5, "outcome": "inactive"}
{"gene": "AGO2 (Argonaute 2)", "dsRNA": "DRSC10847", "Kc cell number, rep 1": 1.43e6, "Kc cell number, rep 2": 1.44e6, "S2R+ cell number, rep 1": 9.86e5, "S2R+ cell number, rep 2": 1.09e6, "outcome": "inactive"}
{"gene": "aPKC (atypical protein kinase C)", "dsRNA": "DRSC05515", "Kc cell number, rep 1": 1.47e6, "Kc cell number, rep 2": 1.48e6, "S2R+ cell number, rep 1": 1.00e6, "S2R+ cell number, rep 2": 1.11e6, "outcome": "inactive"}
{"gene": "aPKC (atypical protein kinase C)", "dsRNA": "DRSC07639", "Kc cell number, rep 1": 1.33e6, "Kc cell number, rep 2": 1.35e6, "S2R+ cell number, rep 1": 1.17e6, "S2R+ cell number, rep 2": 1.28e6, "outcome": "inactive"}
{"gene": "spartin", "dsRNA": "DRSC12187", "Kc cell number, rep 1": 1.61e6, "Kc cell number, rep 2": 1.66e6, "S2R+ cell number, rep 1": 1.48e6, "S2R+ cell number, rep 2": 1.54e6, "outcome": "inactive"}
{"gene": "CG34304 (retired record)", "dsRNA": "DRSC12810", "Kc cell number, rep 1": 1.43e6, "Kc cell number, rep 2": 1.59e6, "S2R+ cell number, rep 1": 1.14e6, "S2R+ cell number, rep 2": 1.33e6, "outcome": "inactive"}

A few values from the list:
CG11882 [DRSC14425], S2R+ cell number, rep 2 = 1.15e6
Under “Kc cell number, rep 1”, aPKC (atypical protein kinase C) [DRSC07639] is entered as 1.33e6

Further records follow.
{"gene": "pHCl-1 (pH-sensitive chloride channel 1)", "dsRNA": "DRSC09401", "Kc cell number, rep 1": 1.36e6, "Kc cell number, rep 2": 1.57e6, "S2R+ cell number, rep 1": 1.15e6, "S2R+ cell number, rep 2": 1.24e6, "outcome": "inactive"}
{"gene": "pHCl-1 (pH-sensitive chloride channel 1)", "dsRNA": "DRSC09991", "Kc cell number, rep 1": 1.35e6, "Kc cell number, rep 2": 1.59e6, "S2R+ cell number, rep 1": 1.37e6, "S2R+ cell number, rep 2": 1.45e6, "outcome": "inactive"}
{"gene": "pHCl-1 (pH-sensitive chloride channel 1)", "dsRNA": "DRSC10589", "Kc cell number, rep 1": 1.30e6, "Kc cell number, rep 2": 1.49e6, "S2R+ cell number, rep 1": 1.38e6, "S2R+ cell number, rep 2": 1.48e6, "outcome": "inactive"}
{"gene": "HIPP1 (HP1 and insulator partner protein 1)", "dsRNA": "DRSC11748", "Kc cell number, rep 1": 1.72e6, "Kc cell number, rep 2": 1.79e6, "S2R+ cell number, rep 1": 1.29e6, "S2R+ cell number, rep 2": 1.36e6, "outcome": "inactive"}
{"gene": "CG30109", "dsRNA": "DRSC05675", "Kc cell number, rep 1": 5.65e5, "S2R+ cell number, rep 1": 8.37e5, "outcome": "inactive"}
{"gene": "ng2 (new glue 2)", "dsRNA": "DRSC18803", "Kc cell number, rep 1": 1.57e6, "Kc cell number, rep 2": 1.55e6, "S2R+ cell number, rep 1": 1.04e6, "S2R+ cell number, rep 2": 1.22e6, "outcome": "inactive"}
{"gene": "CngB (Cyclic nucleotide-gated ion channel subunit B)", "dsRNA": "DRSC04297", "Kc cell number, rep 1": 1.12e6, "Kc cell number, rep 2": 1.19e6, "S2R+ cell number, rep 1": 8.35e5, "S2R+ cell number, rep 2": 7.03e5, "outcome": "inactive"}
{"gene": "CG11617", "dsRNA": "DRSC00321", "Kc cell number, rep 1": 1.69e6, "Kc cell number, rep 2": 1.67e6, "S2R+ cell number, rep 1": 1.15e6, "S2R+ cell number, rep 2": 1.31e6, "outcome": "inactive"}
{"gene": "CG18744", "dsRNA": "DRSC15381", "Kc cell number, rep 1": 1.39e6, "Kc cell number, rep 2": 1.54e6, "S2R+ cell number, rep 1": 1.21e6, "S2R+ cell number, rep 2": 1.26e6, "outcome": "inactive"}
